According to paper PMC7581802:
These are yes or no findings as the source states them, for the method shown. In cells and extracts the contact can be indirect. Some entries that bind do so weakly or less than the wild type.

The chains behind the UniProt entries cited, without tags or fusion partners.
UniProt P08047: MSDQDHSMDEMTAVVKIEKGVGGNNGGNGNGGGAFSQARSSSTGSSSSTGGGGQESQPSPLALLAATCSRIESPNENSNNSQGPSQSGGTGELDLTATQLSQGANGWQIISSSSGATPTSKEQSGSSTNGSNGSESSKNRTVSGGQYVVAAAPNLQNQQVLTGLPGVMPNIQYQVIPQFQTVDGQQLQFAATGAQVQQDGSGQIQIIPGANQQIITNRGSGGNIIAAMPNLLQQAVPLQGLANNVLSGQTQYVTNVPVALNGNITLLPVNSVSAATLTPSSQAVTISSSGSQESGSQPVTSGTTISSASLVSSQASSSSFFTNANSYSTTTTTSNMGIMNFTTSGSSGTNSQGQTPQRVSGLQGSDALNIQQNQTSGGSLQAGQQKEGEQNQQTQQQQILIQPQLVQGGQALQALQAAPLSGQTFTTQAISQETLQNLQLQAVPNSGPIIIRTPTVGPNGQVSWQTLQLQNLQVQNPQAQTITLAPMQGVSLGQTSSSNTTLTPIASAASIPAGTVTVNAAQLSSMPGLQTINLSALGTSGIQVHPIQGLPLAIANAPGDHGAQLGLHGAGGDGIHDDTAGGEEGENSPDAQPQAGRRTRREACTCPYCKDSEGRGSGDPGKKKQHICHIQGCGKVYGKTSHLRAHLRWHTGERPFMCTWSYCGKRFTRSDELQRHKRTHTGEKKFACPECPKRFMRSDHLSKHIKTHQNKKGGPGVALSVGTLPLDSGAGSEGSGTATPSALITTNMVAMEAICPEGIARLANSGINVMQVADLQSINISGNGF
UniProt Q9UNS1: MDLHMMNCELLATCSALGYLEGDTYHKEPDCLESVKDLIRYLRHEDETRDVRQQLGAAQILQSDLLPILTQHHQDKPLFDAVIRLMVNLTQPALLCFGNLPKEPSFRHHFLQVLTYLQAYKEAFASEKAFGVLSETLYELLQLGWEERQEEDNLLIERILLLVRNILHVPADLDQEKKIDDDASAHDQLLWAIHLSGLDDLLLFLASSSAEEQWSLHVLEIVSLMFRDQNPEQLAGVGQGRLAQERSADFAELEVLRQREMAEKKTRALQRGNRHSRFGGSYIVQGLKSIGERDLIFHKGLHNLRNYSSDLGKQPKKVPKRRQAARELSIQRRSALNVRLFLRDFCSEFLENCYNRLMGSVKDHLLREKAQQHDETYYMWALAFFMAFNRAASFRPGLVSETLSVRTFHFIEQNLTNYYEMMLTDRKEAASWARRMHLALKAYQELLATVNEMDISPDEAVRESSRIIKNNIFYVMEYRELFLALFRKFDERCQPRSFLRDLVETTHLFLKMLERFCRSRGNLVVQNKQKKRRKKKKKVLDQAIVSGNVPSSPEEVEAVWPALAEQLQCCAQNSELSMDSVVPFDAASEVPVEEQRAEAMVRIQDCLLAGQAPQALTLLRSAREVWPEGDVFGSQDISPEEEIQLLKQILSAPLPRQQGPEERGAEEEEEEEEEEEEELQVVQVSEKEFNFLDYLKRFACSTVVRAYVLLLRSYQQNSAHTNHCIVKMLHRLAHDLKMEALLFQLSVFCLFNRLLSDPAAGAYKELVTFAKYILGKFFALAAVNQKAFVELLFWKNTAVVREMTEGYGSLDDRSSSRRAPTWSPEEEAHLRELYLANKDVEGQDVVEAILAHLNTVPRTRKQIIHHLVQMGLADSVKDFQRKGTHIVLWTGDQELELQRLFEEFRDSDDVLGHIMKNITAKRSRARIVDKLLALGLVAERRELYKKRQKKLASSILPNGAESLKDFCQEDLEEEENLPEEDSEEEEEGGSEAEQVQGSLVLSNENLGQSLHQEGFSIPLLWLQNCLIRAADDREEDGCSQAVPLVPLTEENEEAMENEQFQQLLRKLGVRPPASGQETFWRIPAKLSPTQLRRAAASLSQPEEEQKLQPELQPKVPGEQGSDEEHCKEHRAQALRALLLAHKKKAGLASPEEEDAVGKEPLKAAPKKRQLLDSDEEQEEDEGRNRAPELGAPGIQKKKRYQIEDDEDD

Biological target: specificity protein 1 (Sp1) (human (endogenous in MCF7)) (UniProt P08047)
Test: co-IP; MCF7 cell lysates (RIPA lysis buffer) immunoprecipitated with anti-Sp1 (anti-TIM) antibody or control IgG, immunoblotted with anti-TIM (anti-Sp1) antibody

TIMELESS circadian regulator (TIM) (from UniProt Q9UNS1 1-1208)
binding: binds
